Patent publication US9926581B2, “Fagopyritol synthase genes and uses thereof” (Cornell Research Foundation, Inc., priority 2002, dated 2018)
Several values for one entry are separate records, joined by “and”; a condition that tells them apart may be missing. Equal entries are not always repeated.

How the values were obtained:
[1] = system: buckwheat explants; test: Buckwheat explant feeding with 100 mM cyclitol in 1% sucrose for 5 days, soluble carbohydrates in embryos and leaf disks; format: in vivo, Fagopyrum esculentum; conditions: replicate values
[2] = system: buckwheat embryos; test: Soluble carbohydrates in buckwheat embryos from seeds matured at 15, 22 or 30° C.; format: in vivo, Fagopyrum esculentum Moench; conditions: for Soluble carbohydrates in buckwheat embryos: harvested at 28 DAP and dried 2 weeks at 12% RH, mean ± SE

Compound: OCC1O[C@@H](O[C@H]2C(O)C(O)[C@H](O)C(O)C2O)C(O)C(O)[C@H]1O (stereo partly drawn) [Fagopyritol A1, α-D-galactopyranosyl-(1→3)-1D-chiro-inositol]
- Soluble carbohydrates in embryos of seeds from buckwheat explants ([1]; fed 100 mM D-chiro-inositol in 1% sucrose solution 5 days, 2 days slow drying): 25.53 μg/embryo and 117.32 μg/embryo
- Soluble carbohydrates in embryos of seeds from buckwheat explants ([1]; fed 100 mM D-chiro-inositol in 1% sucrose solution 5 days, 4 days slow drying): 27.38 μg/embryo and 42.86 μg/embryo and 52.16 μg/embryo
- Soluble carbohydrates in embryos of seeds from buckwheat explants ([1]; fed 100 mM D-chiro-inositol in 1% sucrose solution 5 days, 7 days slow drying): 41.11 μg/embryo and 21.71 μg/embryo and 27.96 μg/embryo
- Soluble carbohydrates in embryos of seeds from buckwheat explants ([1]; fed 100 mM D-chiro-inositol in 1% sucrose solution, after 1 day feeding): 0 μg/embryo
- Soluble carbohydrates in embryos of seeds from buckwheat explants ([1]; fed 100 mM D-chiro-inositol in 1% sucrose solution, after 5 days feeding): 10.71 μg/embryo and 133.47 μg/embryo and 69.49 μg/embryo
- Soluble carbohydrates in embryos of seeds from buckwheat explants ([1]; fed 100 mM D-pinitol in 1% sucrose solution 5 days, 2 days slow drying): 2.38 μg/embryo and 29.81 μg/embryo and 23.96 μg/embryo
- Soluble carbohydrates in embryos of seeds from buckwheat explants ([1]; fed 100 mM D-pinitol in 1% sucrose solution 5 days, 4 days slow drying): 16.78 μg/embryo and 39.10 μg/embryo and 15.80 μg/embryo
- Soluble carbohydrates in embryos of seeds from buckwheat explants ([1]; fed 100 mM D-pinitol in 1% sucrose solution 5 days, 7 days slow drying): 10.82 μg/embryo and 12.44 μg/embryo and 20.01 μg/embryo
- Soluble carbohydrates in embryos of seeds from buckwheat explants ([1]; fed 100 mM D-pinitol in 1% sucrose solution, after 1 day feeding): 0 μg/embryo
- Soluble carbohydrates in embryos of seeds from buckwheat explants ([1]; fed 100 mM D-pinitol in 1% sucrose solution, after 5 days feeding): 0 μg/embryo and 21.43 μg/embryo and 22.91 μg/embryo
- Soluble carbohydrates in embryos of seeds from buckwheat explants ([1]; fed 100 mM myo-inositol in 1% sucrose solution 5 days, 2 days slow drying): 62.19 μg/embryo and 29.81 μg/embryo
- Soluble carbohydrates in embryos of seeds from buckwheat explants ([1]; fed 100 mM myo-inositol in 1% sucrose solution 5 days, 4 days slow drying): 19.72 μg/embryo and 41.42 μg/embryo
- Soluble carbohydrates in embryos of seeds from buckwheat explants ([1]; fed 100 mM myo-inositol in 1% sucrose solution 5 days, 7 days slow drying): 14.49 μg/embryo and 34.61 μg/embryo
- Soluble carbohydrates in embryos of seeds from buckwheat explants ([1]; fed 100 mM myo-inositol in 1% sucrose solution, after 1 day feeding): 0 μg/embryo
- Soluble carbohydrates in embryos of seeds from buckwheat explants ([1]; fed 100 mM myo-inositol in 1% sucrose solution, after 5 days feeding): 18.90 μg/embryo and 10.94 μg/embryo
- Soluble carbohydrates in embryos of seeds from buckwheat explants ([1]; fed 1% sucrose (without cyclitols) solution 5 days, 2 days slow drying): 12.27 μg/embryo and 51.20 μg/embryo and 76.65 μg/embryo
- Soluble carbohydrates in embryos of seeds from buckwheat explants ([1]; fed 1% sucrose (without cyclitols) solution 5 days, 4 days slow drying): 16.02 μg/embryo and 14.64 μg/embryo
- Soluble carbohydrates in embryos of seeds from buckwheat explants ([1]; fed 1% sucrose (without cyclitols) solution 5 days, 7 days slow drying): 23.01 μg/embryo and 15.97 μg/embryo
- Soluble carbohydrates in embryos of seeds from buckwheat explants ([1]; fed 1% sucrose (without cyclitols) solution, after 5 days feeding): 0.70 μg/embryo and 27.67 μg/embryo
- Soluble carbohydrates in buckwheat embryos ([2]; seeds matured at 15° C.): 45.59 ± 5.24 μg/embryo
- Soluble carbohydrates in buckwheat embryos ([2]; seeds matured at 22° C.): 34.15 ± 10.02 μg/embryo
- Soluble carbohydrates in buckwheat embryos ([2]; seeds matured at 30° C.): 21.78 ± 1.55 μg/embryo

Compound: digalactosyl myo-inositol
- Minor soluble carbohydrates in buckwheat embryos ([2]; maturation temperature 15° C., 16 DAP): 0 μg/embryo
- Minor soluble carbohydrates in buckwheat embryos ([2]; maturation temperature 15° C., 20 DAP): 0 μg/embryo
- Minor soluble carbohydrates in buckwheat embryos ([2]; maturation temperature 15° C., 28 DAP): 0 μg/embryo
- Minor soluble carbohydrates in buckwheat embryos ([2]; maturation temperature 15° C., 28 DAP + 2 wk 12% RH): 0.25 ± 0.25 μg/embryo
- Minor soluble carbohydrates in buckwheat embryos ([2]; maturation temperature 22° C., 16 DAP): 0 μg/embryo
- Minor soluble carbohydrates in buckwheat embryos ([2]; maturation temperature 22° C., 20 DAP): 1.38 ± 0.84 μg/embryo
- Minor soluble carbohydrates in buckwheat embryos ([2]; maturation temperature 22° C., 28 DAP): 1.12 ± 0.18 μg/embryo
- Minor soluble carbohydrates in buckwheat embryos ([2]; maturation temperature 22° C., 28 DAP + 2 wk 12% RH): 0.55 ± 0.55 μg/embryo
- Minor soluble carbohydrates in buckwheat embryos ([2]; maturation temperature 30° C., 16 DAP): 1.02 ± 1.02 μg/embryo
- Minor soluble carbohydrates in buckwheat embryos ([2]; maturation temperature 30° C., 20 DAP): 3.54 ± 2.51 μg/embryo
- Minor soluble carbohydrates in buckwheat embryos ([2]; maturation temperature 30° C., 28 DAP): 2.21 ± 0.32 μg/embryo
- Minor soluble carbohydrates in buckwheat embryos ([2]; maturation temperature 30° C., 28 DAP + 2 wk 12% RH): 1.69 ± 0.73 μg/embryo
- Soluble carbohydrates in buckwheat embryos ([2]; seeds matured at 15° C.): 0.25 ± 0.25 μg/embryo
- Soluble carbohydrates in buckwheat embryos ([2]; seeds matured at 22° C.): 0.55 ± 0.55 μg/embryo
- Soluble carbohydrates in buckwheat embryos ([2]; seeds matured at 30° C.): 1.69 ± 0.73 μg/embryo
